The list shows a part of the results. The main result of the screen is listed elsewhere. These columns were measured beside it and carry no call. Most of these compounds were active or inconclusive in the main read-out, so they are no random draw. Potencies come from curve fits of mixed quality, noted in brackets.
Experiment: qHTS Assay to Find Inhibitors of Chronic Active B-Cell Receptor Signaling
Conditions: ABC-DLBCL IkBa-CBG/CBR reporter, luminescence ratio (green luciferase fused to IkBa over red control in TMD8 lymphoma cells), 4 h
How it was run: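 Cell line TMD8 (human ABC DLBCL), stably expressing tet-inducible CBG68-IkBa fusion and CBR; IMDM/0.5% FBS; cpd up to 46 uM; dox induction, 4 h, 37C/5% CO2; dual luminescence; green/red ratio; MG132 control.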

[1] = measured here: CBR red luminescence, cell number
[2] = measured here: IkBa-CBG green luminescence

| SMILES | AC50 [1] | AC50 [2] |
| --- | --- | --- |
| O=C(COc1cccc2c1CCN(Cc1ccccc1F)C2=O)N1CCOCC1 | 22.4 µM [falling, single point] | – |
| Cn1c(SCC(=O)N2CCCCCC2)nc2c(c1=O)SCC2 | 6.31 µM [falling, partial curve, poor fit] | – |
| Cn1cc(/C=C(\NC(=O)c2ccccc2Cl)C(=O)N2CCOCC2)c2ccccc21 | 4.47 µM [falling, single point] | – |
| COC(=O)c1sc(NC(=S)NC(=O)c2ccccc2C)nc1C | 22.4 µM [falling, single point] | – |
| O=C(c1ccco1)N1CCN(Cc2csc(-c3ccccc3Cl)n2)CC1 | 14.1 µM [falling, partial curve, poor fit] | – |
| Cn1nc(C(=O)OCCN2C(=O)c3ccccc3C2=O)c2ccccc2c1=O | 0.0517 µM [falling, full curve, poor fit] | – |
| CC(C)CC(COCc1ccc(Cl)cc1)N1CCN(C(=O)c2ccc(C(F)(F)F)cc2)CCC1=O (configuration not stated) | 0.92 µM [falling, full curve, poor fit] | – |
| O=C(NC(=S)N1CCOCC1)c1cn(-c2ccccc2)nc1-c1ccccc1 | 5.8 µM [rising, full curve] | 18.4 µM [falling, partial curve] |
| Cc1cc(N2CCN(C)CC2)ccc1NC(=O)c1cccc(S(=O)(=O)N2CCc3ccccc3C2)c1 | 35.5 µM [falling, single point] | – |
| O=C(NNC1=C(C(=O)C(F)(F)F)CCC1)c1ccc(Cl)cc1 | 2.24 µM [falling, full curve, poor fit] | – |
| CCOC(=O)c1ccc(N2CCN(c3cccc(Cl)c3)CC2)c(NC(=O)Nc2ccc(Cl)cc2)c1 | 0.501 µM [rising, full curve] | – |
| COc1cc2c(cc1OC)-c1cc(Nc3cccc(C)c3)nc(=O)n1CC2 | 3.16 µM [rising, full curve, poor fit] | 4.47 µM [falling, partial curve, poor fit] |
| COc1ccc(/C=N/NC(=O)Cc2csc(Nc3cccc(C(F)(F)F)c3)n2)c(OC)c1 | 35.5 µM [falling, single point] | – |
| CC1(OC(=O)C2CCCC2)C(=O)C=C2C=C(c3ccsc3)N(Cc3ccco3)C=C2C1=O (configuration not stated) | 10 µM [rising, partial curve, poor fit] | – |
| Nc1sc(-c2ccccc2)n[n+]1Cc1cccc2cccnc12 | 35.5 µM [falling, single point] | – |
| COc1ccc(NS(=O)(=O)c2ccc(SC)cc2)cc1 | 16.4 µM [falling, single point] | – |
| S=c1[nH]nc(Nc2ccccc2Cl)s1 | 35.5 µM [falling, single point] | – |
| O=C1C2C3C=CC(C3)C2C(=O)N1Nc1c(Cl)cc(Cl)cc1Cl (configuration not stated) | 2 µM [falling, partial curve, poor fit] | – |
| CCOc1cccc(/C=C2\NC(=S)N(c3ccccc3)C2=O)c1O | 2.24 µM [falling, full curve] | – |
| O=C(NC(=S)/C(=C1\CCCCCN1)[N+](=O)[O-])c1ccccc1 | 13 µM [rising, single point] | – |

Two compounds drawn at random from the list so far:

| SMILES | AC50 [1] | AC50 [2] |
| --- | --- | --- |
| Cn1nc(C(=O)OCCN2C(=O)c3ccccc3C2=O)c2ccccc2c1=O | 0.0517 µM [falling, full curve, poor fit] | – |
| Cc1cc(N2CCN(C)CC2)ccc1NC(=O)c1cccc(S(=O)(=O)N2CCc3ccccc3C2)c1 | 35.5 µM [falling, single point] | – |

The list continues.

| SMILES | AC50 [1] | AC50 [2] |
| --- | --- | --- |
| CC(Sc1cccc[n+]1[O-])C(=O)Nc1ccc([N+](=O)[O-])cc1Cl (configuration not stated) | – | 17.8 µM [falling, partial curve, poor fit] |
| CC1SCC(=O)N(CC(=O)Nc2ccc3c(c2)OCO3)C1=O (configuration not stated) | 0.259 µM [rising, full curve, poor fit] | – |
| Cn1c(N)c(C(=O)COC(=O)c2cc(S(=O)(=O)N3CCCCC3)ccc2Cl)c(=O)n(C)c1=O | 25.9 µM [rising, single point] | – |
| CC(C)(C)c1ccc(-c2nc(-c3ccncc3)no2)cc1 | 20.6 µM [rising, single point] | – |
| O=C(NC1CCCCC1)c1cc(-c2ccco2)on1 | 1.58 µM [falling, full curve, poor fit] | – |
| COc1ccc(N2C(=O)CC(N3CCN(c4ccc(C(=O)c5cccnc5)cc4)CC3)C2=O)cc1 (configuration not stated) | 0.891 µM [falling, full curve, poor fit] | – |
| COc1ccc2sc(-c3ccccc3OC)c(-c3ccc(O)cc3)c2c1 | 8.2 µM [falling, partial curve] | 13 µM [rising, partial curve, poor fit] |
| CCOC(=O)C1CCN(C(=O)CNC(=O)OC(C)(C)C)CC1 | 29.1 µM [rising, single point] | – |
| CC1CCN(C(=O)Cn2cc([N+](=O)[O-])ccc2=O)c2ccccc2S1 (configuration not stated) | 6.51 µM [rising, single point] | – |
| COc1ccccc1/C=N/NC(=S)NCc1ccco1 | 14.1 µM [falling, partial curve, poor fit] | – |
| Cc1ccc(NC(=O)Nc2cccs2)nc1 | 6.51 µM [falling, partial curve, poor fit] | – |
| Cc1ccnc(N/N=C/c2ccccc2)n1 | 16.4 µM [falling, partial curve] | – |
| CCN(CC)C(=O)CSc1ncccc1-c1nc2ccccc2[nH]1 | 2.82 µM [falling, full curve, poor fit] | – |
| COC(=O)N/N=C/c1ccccc1 | 25.1 µM [rising, single point] | – |
| CCOc1ccccc1C(=O)Nc1cc2c(cc1N1CCCC1)n(CC)c(=O)n2CC | 11.2 µM [falling, single point] | – |
| O=C(NCc1ccco1)C1CCN(C(=O)Cc2ccccc2)CC1 | 6.51 µM [rising, single point] | – |
| COc1cccc(N2CCN(C(C)C(=O)NC34CC5CC(CC(C5)C3)C4)CC2)c1 (configuration not stated) | 3.16 µM [falling, partial curve, poor fit] | – |
| Cc1cccc(-n2c3nc(=O)[nH]c(=O)c-3cc3cc([N+](=O)[O-])ccc32)c1 | – | 6.51 µM [falling, partial curve] |
| Cc1ccc(-c2nc3ccccc3[nH]2)cc1NC(=S)NC(=O)c1ccccc1Br | 1.58 µM [falling, full curve, poor fit] | – |

Among those listed so far, two have a tert-butyl group.

| SMILES | AC50 [1] | AC50 [2] |
| --- | --- | --- |
| CC(C)(C)c1ccc(-c2nc(-c3ccncc3)no2)cc1 | 20.6 µM [rising, single point] | – |
| CCOC(=O)C1CCN(C(=O)CNC(=O)OC(C)(C)C)CC1 | 29.1 µM [rising, single point] | – |

From PubChem BioAssay AID493014 (National Center for Advancing Translational Sciences (NCATS), 2011)
